From publication PMC4799877 come the findings set out here.

The chains behind the UniProt entries cited, without tags or fusion partners. Where a name states a change or a piece, a line headed by the entry shows the natural chain unless it says otherwise.
UniProt P43694: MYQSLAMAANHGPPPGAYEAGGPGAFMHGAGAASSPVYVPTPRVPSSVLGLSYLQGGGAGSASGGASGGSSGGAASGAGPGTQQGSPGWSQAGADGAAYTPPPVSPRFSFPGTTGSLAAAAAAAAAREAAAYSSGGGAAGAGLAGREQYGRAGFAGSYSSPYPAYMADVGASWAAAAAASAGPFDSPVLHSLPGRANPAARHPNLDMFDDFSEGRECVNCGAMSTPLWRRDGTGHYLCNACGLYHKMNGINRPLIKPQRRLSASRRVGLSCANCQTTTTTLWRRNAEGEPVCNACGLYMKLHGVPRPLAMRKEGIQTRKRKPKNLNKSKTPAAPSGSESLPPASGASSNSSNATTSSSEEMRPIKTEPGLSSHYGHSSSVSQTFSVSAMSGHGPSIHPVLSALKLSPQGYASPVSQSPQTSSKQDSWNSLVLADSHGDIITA
UniProt Q9BWX5: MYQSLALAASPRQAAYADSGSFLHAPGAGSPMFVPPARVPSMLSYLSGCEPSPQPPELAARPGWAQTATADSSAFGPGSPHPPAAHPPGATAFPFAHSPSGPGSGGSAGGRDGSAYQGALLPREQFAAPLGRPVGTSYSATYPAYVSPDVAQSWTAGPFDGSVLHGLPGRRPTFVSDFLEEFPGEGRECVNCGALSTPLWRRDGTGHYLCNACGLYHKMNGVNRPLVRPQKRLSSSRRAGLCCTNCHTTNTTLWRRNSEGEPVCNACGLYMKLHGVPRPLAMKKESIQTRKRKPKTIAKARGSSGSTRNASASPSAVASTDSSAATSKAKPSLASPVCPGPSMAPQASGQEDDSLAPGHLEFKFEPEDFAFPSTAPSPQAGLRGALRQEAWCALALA

One assay has as its target Flag-tagged GATA4 (UniProt P43694). Kind of assay: co-IP; nuclear extracts of transfected HEK293 cells; legend: immunoprecipitated with anti-Flag (GATA4), GATA5 detected with anti-HA, membrane stripped and reprobed with anti-Flag; methods: antibody on Dynabeads Protein G, 2 h at RT, three washes with PBS 1X.
In assay [1] the target is HA-tagged GATA5 p.Y142H (human) (UniProt Q9BWX5). Put plainly: co-IP; data not shown; methods: anti-HA antibody on Dynabeads Protein G, mixture of proteins incubated 2 h at RT, washed three times with PBS 1X, blot with anti-Flag, quantified by Image J.
Assay [2] has as its target HA-tagged GATA5 (wild type) (human) (UniProt Q9BWX5). The description is as above.

No constants are given. Whether binding was seen depends on the method and setting. Binding seen in cells or lysates may run through a third protein. Some entries that bind do so weakly or less than the wild type. For some of these results: Tags and fused reporters may be left off the sequences shown.

“HA-tagged GATA5 (wild type) (from UniProt Q9BWX5 1-397)”: the binding entry with Flag-tagged GATA4 was “binds”.
As for “HA-tagged GATA5 p.Y142H (from UniProt Q9BWX5 1-397)”, the binding entry with Flag-tagged GATA4 is “binds”.

B1: NFATC1 (Flag-tagged) (protein, UniProt O95644 1-943)
chain: MPSTSFPVPSKFPLGPAAAVFGRGETLGPAPRAGGTMKSAEEEHYGYASSNVSPALPLPTAHSTLPAPCHNLQTSTPGIIPPADHPSGYGAALDGGPAGYFLSSGHTRPDGAPALESPRIEITSCLGLYHNNNQFFHDVEVEDVLPSSKRSPSTATLSLPSLEAYRDPSCLSPASSLSSRSCNSEASSYESNYSYPYASPQTSPWQSPCVSPKTTDPEEGFPRGLGACTLLGSPRHSPSTSPRASVTEESWLGARSSRPASPCNKRKYSLNGRQPPYSPHHSPTPSPHGSPRVSVTDDSWLGNTTQYTSSAIVAAINALTTDSSLDLGDGVPVKSRKTTLEQPPSVALKVEPVGEDLGSPPPPADFAPEDYSSFQHIRKGGFCDQYLAVPQHPYQWAKPKPLSPTSYMSPTLPALDWQLPSHSGPYELRIEVQPKSHHRAHYETEGSRGAVKASAGGHPIVQLHGYLENEPLMLQLFIGTADDRLLRPHAFYQVHRITGKTVSTTSHEAILSNTKVLEIPLLPENSMRAVIDCAGILKLRNSDIELRKGETDIGRKNTRVRLVFRVHVPQPSGRTLSLQVASNPIECSQRSAQELPLVEKQSTDSYPVVGGKKMVLSGHNFLQDSKVIFVEKAPDGHHVWEMEAKTDRDLCKPNSLVVEIPPFRNQRITSPVHVSFYVCNGKRKRSQYQRFTYLPANVPIIKTEPTDDYEPAPTCGPVSQGLSPLPRPYYSQQLAMPPDPSSCLVAGFPPCPQRSTLMPAAPGVSPKLHDLSPAAYTKGVASPGHCHLGLPQPAGEAPAVQDVPRPVATHPGSPGQPPPALLPQQVSAPPSSSCPPGLEHSLCPSSPSPPLPPATQEPTCLQPCSPACPPATGRPQHLPSTVRRDESPTAGPRLLPEVHEDGSPNLAPIPVTVKREPEELDQLYLDDVNEIIRNDLSSTSTHS
For the molecule B1, the binding result in assay [1] and in assay [2] was “binds” in each case.
